Data: ChEMBL document CHEMBL1154797, “Synthesis, anti-bacterial and anti-fungal activities of some novel Schiff bases containing 2,4-disubstituted thiazole ring” (2010)
In brackets after ≈: the same amount, converted by molar mass.

Assays:
Assay type in all cases: functional
[1] = tested on: Cryptococcus neoformans; experiment: Antifungal activity against Cryptococcus neoformans
[2] = tested on: Aspergillus flavus
[3] = tested on: Aspergillus flavus; experiment: Antifungal activity against Aspergillus flavus
[4] = tested on: Candida tropicalis; experiment: Antifungal activity against Candida tropicalis
[5] = tested on: Cryptococcus neoformans
[6] = tested on: Candida albicans; experiment: Antifungal activity against Candida albicans
[7] = tested on: Candida tropicalis
[8] = tested on: Candida albicans

`COc1ccc(-c2csc(NN=C3CCCCC3)n2)cc1` was tested, and the MIC [1] was 12.5 µg/mL (≈ 41.5 µM), the “diameter of the inhibition zone (DIZ)” value [2] was 18 mm and the MIC [3] was 12.5 µg/mL (≈ 41.5 µM). The MIC [4] was 12.5 µg/mL (≈ 41.5 µM), the “diameter of the inhibition zone (DIZ)” value [5] was 17 mm and the MIC [6] was 12.5 µg/mL (≈ 41.5 µM). The “diameter of the inhibition zone (DIZ)” value [7] was 16 mm and the “diameter of the inhibition zone (DIZ)” value [8] was 16 mm.
